Laboratory results taken from patent publication US20160317391A1, “MEDIA MILLING PROCESS FOR THE MANUFACTURE OF ACTIVE PHARMACEUTICAL INGREDIENTS IN PROPELLANTS” (MERCK SHARP & DOHME CORP., priority 2013, published 2016).

[1] = accelerated conditions of stability

Row | Structure (SMILES) | period stable at accelerated conditions of stability (accelerated conditions of humidity (75%) and temperature (40° C.)) | particle growth under accelerated conditions of stability [1] | PSD measurability after exposure beyond 24 h (75% RH and 40° C., significant particle growth) | time within which particles grew on exposure to accelerated conditions [1]
1 | C[N+]1(C)CCC(OC(=O)C(O)(c2ccccc2)C2CCCC2)C1.[Br-] (stereo not shown) [HFA-LabRAM milled GP, glycopyrrolate bromide] | over 4 weeks | did not exhibit noticeable particle growth for up to a month |  | 
2 | C[N+]1(C)CCC(OC(=O)C(O)(c2ccccc2)C2CCCC2)C1.[Br-] (stereo not shown) [jet milled GP, glycopyrrolate bromide] |  |  | immeasurable | ≤ 6 h
